{"source": "patent US8809627B2", "about": "“Plant isoflavone and isoflavanone O-methyltransferase genes” (The Samuel Roberts Noble Foundation, Inc., priority 2006, dated 2014)", "assay_type_in_all_cases": "biochemical, Medicago truncatula", "key": {"MtIOMT7": {"system": "MtIOMT7", "assay": "OMT assays with purified recombinant MtIOMT7 (relative activity; HPLC/MS of products)", "conditions": "for Position of methylation / reaction products, MtIOMT7: HPLC against standards, tandem MS; for Enantiomer methylated, MtIOMT7: chiral HPLC of unreacted substrate, 2 h", "text": "(§1) Cloning of MtIOMT5 (corresponding to TC 100926, TIGR MtGI v.8) was as described previously (Liu et al., 2005). To obtain a full-length cDNA for MtIOMT2, specific primers designed based upon the M. truncatula genomic sequence were used to amplify the MtIOMT2 coding sequence from M. truncatula root cDNA. The amplified product was cloned into the pGEM®-T easy vector (Promega, Madison Wis.) and sequenced to confirm its identity. MtIOMTs were cloned into the pET28a vector (EMD Biosciences, Inc., San Diego, Calif.) using PCR-based amplification with primers designed to introduce EcoRI and XhoI restriction sites; BamHI and XhoI sites were used for cloning MtIOMT6 due to the presence of an internal EcoRI site in this particular cDNA. Because the EST for MtIOMT8 was missing a start codon, the primer designed to clone MtIOMT8 into pET28a contained an additional 2-nucleotide insertion to generate an ATG start site. All MtIOMTs were expressed as translational fusions to an N-terminal His-tag. Expression of MtIOMTs in E. coli BL21(DE3) and purification by Ni^2+-NTA chromatography were as described (Zubieta et al., 2001). Proteins were dialyzed against 20 mM Tris pH 8.0, 100 mM NaCl, 10% (v/v) glycerol, and 14 mM β-mercaptoethanol. Protein concentration was determined by Bradford assay using BSA as a standard (Bradford, 1976).\n(§2) Reactions (200 μl) were performed in 0.1 M potassium phosphate, pH 7.4, 10% (w/v) sucrose, 14 mM β-mercaptoethanol with 10 μM protein, 0.5 mM S-adenosyl-L-methionine, and 80 μM phenolic substrates. All substrates were purchased from Indofine (Hillsborough, N.J.) except 6,7-dihydroxy-4′-methoxyisoflavone, dihydrodaidzein, and vestitol, which were purchased from Apin (Oxfordshire, UK). […] OMT assays were incubated at 30° C. for 2 h and extracted with ethyl acetate. Ethyl acetate extracts were dried under N2 and the resultant material was resuspended in 50-100 μl of methanol. Samples were analyzed on an Agilent 1100 HPLC, equipped with a quaternary pump (model #G1311A), a degasser (model #G1322A), an autosampler (model #G1313A), and a diode array detector (model #G1315A). Samples of 20 μl were applied to an ODS2 reverse-phase column (5 μm particle size, 4.6×250 mm) and eluted in 1% (v/v) phosphoric acid with an increasing gradient of acetonitrile (0-5 min, 25%; 5-35 min, 25-50%; 35-39 min, 50-100%) at a flow rate of 1 ml/min. To resolve the 4′-O-methylated and 7-O-methylated products of genistein, samples were applied to a Phenomenex SYNERGI Polar-RP 80 Å column (4 μm particle size, 4.6×250 mm) and eluted in water with an increasing gradient of acetonitrile (0-5 min, 20%; 5-17 min, 20-38%; 17-33 min, 38%; 33-45 min, 38-56%; 45-46 min, 56-100%) at a flow rate of 1 ml/min. Chiral chromatography was performed as described (Liu et al., 2005).\n(§3) For determination of specific activities, reactions (100 μl) were performed in 0.1 M potassium phosphate, pH 7.4, 10% (w/v) sucrose, 14 mM β-mercaptoethanol with 0.2-μg protein, 50 μM S-adenosyl-L-methionine (0.025 μCi ^14C-SAM per reaction), and 100 μM substrate. Reactions were incubated at 30° C. for 15-25 min and stopped by addition of 4 μl of 1N HCl. Products were extracted into 500 μl of ethyl acetate and 400 μl was used for liquid scintillation counting.\n(§4) An HP 1100 series II LC system (Hewlett-Packard, Palo Alto, Calif.) with a photodiode array detector was coupled to a Bruker Esquire ion-trap mass spectrometer (ITMS) equipped with an electrospray ionization source. A reverse phase, C18, 5 μm, 4.6×250 mm column (J. T. Baker, Phillipsburg, N.J.) was used for separations. The mobile phase consisted of 0.1% (v/v) acetic acid using linear gradients of 5-90% acetonitrile (v/v) in 70 min. The flow rate was 0.8 ml/min, and the temperature of the column was kept at 28° C. Both positive- and negative-ion mass spectra were acquired."}, "MtIOMT3": {"system": "MtIOMT3", "assay": "OMT assays with purified recombinant MtIOMT3 (relative activity; HPLC/MS of products)", "conditions": "HPLC against standards, tandem MS", "text": "as §1, §2, §3\nas §4, with “acquired. […]” for “acquired.”"}, "MtIOMT2": {"system": "MtIOMT2", "assay": "OMT assays with purified recombinant MtIOMT2 (relative activity; HPLC/MS of products)", "conditions": "HPLC against standards, tandem MS", "text": "as §1\nReactions (200 μl) were performed in 0.1 M potassium phosphate, pH 7.4, 10% (w/v) sucrose, 14 mM β-mercaptoethanol with 10 μM protein, 0.5 mM S-adenosyl-L-methionine, and 80 μM phenolic substrates. All substrates were purchased from Indofine (Hillsborough, N.J.) except 6,7-dihydroxy-4′-methoxyisoflavone, dihydrodaidzein, and vestitol, which were purchased from Apin (Oxfordshire, UK). […] OMT assays were incubated at 30° C. for 2 h and extracted with ethyl acetate. […] Samples were analyzed on an Agilent 1100 HPLC, equipped with a quaternary pump (model #G1311A), a degasser (model #G1322A), an autosampler (model #G1313A), and a diode array detector (model #G1315A). […]"}}}
{"compound": "O=C1c2ccc(O)cc2OC(O)C1c1ccc(O)cc1", "note": "(stereo not shown) [2,7,4′-trihydroxyisoflavanone]", "values": [{"measurement": "Position of methylation / reaction products, MtIOMT7", "setting": "MtIOMT7", "result": "Two minor peaks"}, {"measurement": "Position of methylation / reaction products, MtIOMT3", "setting": "MtIOMT3", "result": "no products are detected"}]}
{"compound": "O=c1c(-c2ccc(O)cc2)coc2cc(O)c(O)cc12", "note": "[6,7,4′-trihydroxyisoflavone]", "values": [{"measurement": "Position of methylation / reaction products, MtIOMT3", "setting": "MtIOMT3", "result": "7-position"}]}
{"compound": "O=c1c(-c2ccc(O)c(O)c2)coc2cc(O)ccc12", "note": "[7,3′,4′-trihydroxyisoflavone]", "values": [{"measurement": "Position of methylation / reaction products, MtIOMT7", "setting": "MtIOMT7", "result": "7-O-methylated"}, {"measurement": "Position of methylation / reaction products, MtIOMT3", "setting": "MtIOMT3", "result": "calycosin"}]}
{"compound": "O=c1oc2cc(O)ccc2c2oc3cc(O)ccc3c12", "note": "[Coumestrol]", "values": [{"measurement": "Position of methylation / reaction products, MtIOMT2", "setting": "MtIOMT2", "result": "9-position"}, {"measurement": "Position of methylation / reaction products, MtIOMT7", "setting": "MtIOMT7", "result": "9-O-methylation"}]}
{"compound": "O=c1c(-c2ccc(O)cc2)coc2cc(O)ccc12", "note": "[Daidzein]", "values": [{"measurement": "Position of methylation / reaction products, MtIOMT3", "setting": "MtIOMT3", "result": "Minor 7-O-methyl (isoformononetin) and 4′-O-methyl (formononetin) products"}]}
{"compound": "O=C1c2ccc(O)cc2OCC1c1ccc(O)cc1", "note": "(stereo not shown) [Dihydrodaidzein]", "values": [{"measurement": "Position of methylation / reaction products, MtIOMT2", "setting": "MtIOMT2", "result": "both 7 and 4′-O-methylated products"}, {"measurement": "Position of methylation / reaction products, MtIOMT7", "setting": "MtIOMT7", "result": "4′-O-methylated, 7-O-methylated, and 4′,7-di-O-methylated products"}, {"measurement": "Position of methylation / reaction products, MtIOMT3", "setting": "MtIOMT3", "result": "Primarily 4′-O-methylated product"}]}
{"compound": "O=c1c(-c2ccc(O)cc2)coc2cc(O)cc(O)c12", "note": "[Genistein]", "values": [{"measurement": "Position of methylation / reaction products, MtIOMT3", "setting": "MtIOMT3", "result": "biochanin A"}]}
{"compound": "COc1cc2c(=O)c(-c3ccc(O)cc3)coc2cc1O", "note": "[Glycitein]", "values": [{"measurement": "Position of methylation / reaction products, MtIOMT7", "setting": "MtIOMT7", "result": "7-O-methylated"}, {"measurement": "Position of methylation / reaction products, MtIOMT3", "setting": "MtIOMT3", "result": "7-position"}]}
{"compound": "O=C1C[C@@H](c2ccc(O)cc2)Oc2cc(O)ccc21", "note": "[Liquiritigenin]", "values": [{"measurement": "Position of methylation / reaction products, MtIOMT2", "setting": "MtIOMT2", "result": "7-O-methylated and 7,4′-di-O-methylated products"}, {"measurement": "Position of methylation / reaction products, MtIOMT7", "setting": "MtIOMT7", "result": "7-O-methyl-liquiritigenin, 4′-O-methyl-liquiritigenin, and 7,4′-O-dimethyl-liquiritigenin"}, {"measurement": "Enantiomer methylated, MtIOMT7", "setting": "MtIOMT7", "result": "preferentially methylates the (2S)-enantiomer"}]}
{"compound": "O=C1C[C@@H](c2ccc(O)cc2)Oc2cc(O)cc(O)c21", "note": "[Naringenin]", "values": [{"measurement": "Position of methylation / reaction products, MtIOMT7", "setting": "MtIOMT7", "result": "4′-O-methyl-naringenin"}, {"measurement": "Enantiomer methylated, MtIOMT7", "setting": "MtIOMT7", "result": "both (2S) and (2R)-enantiomers"}]}
